# PubChem BioAssay AID652272 | Drosophila RNAi Screening Center | 2013
# Aim: 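Genes whose knock-down decreases or increases Hedgehog reporter output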 (primary screen)
# Cell system: Drosophila clone 8 (Cl8) cells
# Reagents: long dsRNA against Drosophila genes
# Read-out: 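Plate reader light from a firefly reporter under a ptc promoter fragment that responds to Hedgehog, with Renilla light as transfection reference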
# Reading the numbers: firefly Hh reporter signal: higher = more ptc reporter light; Renilla reference signal: higher = more Renilla control light
# Active means: 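Called a hit if the two-replicate mean z-score lies below -2 or above +3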
# Meaning of the calls: active = hit: reporter lowered or raised; inactive = not a hit
# The screen tested about 21,000 reagents; this is a random part of those with a known target gene and a result. In the full data, 503 (2.4%) were called active. 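Raw plate light values, not normalised; calls rest on replicate z-scores that were not deposited; hits include reporter decreases as well as increases.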 Names joined by + are all predicted targets of the reagent. The record does not give: the amount of reagent, the time to read-out.
gene,PubChem SID,"firefly Hh reporter signal, replicate 1","firefly Hh reporter signal, replicate 2","firefly Hh reporter signal, replicate 3","Renilla reference signal, replicate 1","Renilla reference signal, replicate 2",Outcome
Miox,SID104190539,45415,57073,43064,5223,3101,inactive
clos,SID104186032,1.07e5,65897,,2918,5154,inactive
clos,SID104186033,1.49e5,84156,,3803,6330,inactive
clos,SID104186570,1.02e5,38024,,2692,2656,inactive
hkb,SID104192169,1.18e5,1.13e5,,4378,12066,inactive
CG4629,SID104180451,1.40e5,1.38e5,,3380,3336,inactive
CG8960,SID104188404,1.06e5,91184,,4707,4181,inactive
CG12288,SID104181947,1.01e5,69290,,2800,5697,inactive
Ku80,SID104182491,84515,56698,,2496,5370,inactive
CG5043,SID104182597,67556,52288,,1722,4713,inactive
CG14302,SID104194573,8.20e5,1.55e5,,39344,3941,inactive
l(2)05287,SID104181943,67130,69635,,2950,3724,inactive
l(2)05287,SID104181944,76522,35664,,3001,4992,active
EloC,SID104187215,68690,69377,,1361,4605,inactive
awd,SID104196698,86604,1.86e5,,3428,8293,inactive
CG9512,SID104199981,1.24e5,81511,,2821,2347,inactive
CG13344,SID104186170,1.11e5,94923,,4820,4048,inactive
GCC88,SID104194056,63173,1.40e5,,2259,4185,inactive
Odc2,SID104187275,70260,49824,,1819,4618,inactive
Pkn,SID104186601,59660,46445,,688,1360,inactive
Pkn,SID104186602,1.52e5,61917,,4178,5842,inactive
elfless,SID104182243,78423,50826,,2262,4300,inactive
ths,SID104185945,54806,22200,,1392,1457,inactive

Entries listed above with an active call (1):
gene,PubChem SID,"firefly Hh reporter signal, replicate 1","firefly Hh reporter signal, replicate 2","firefly Hh reporter signal, replicate 3","Renilla reference signal, replicate 1","Renilla reference signal, replicate 2",Outcome
l(2)05287,SID104181944,76522,35664,,3001,4992,active

Next reagents follow:
gene,PubChem SID,"firefly Hh reporter signal, replicate 1","firefly Hh reporter signal, replicate 2","firefly Hh reporter signal, replicate 3","Renilla reference signal, replicate 1","Renilla reference signal, replicate 2",Outcome
gry,SID104187820,1.13e5,2.81e5,,4056,11808,inactive
gry,SID104188310,74000,76571,,3986,3018,inactive
CG17768 + LSm-4,SID104182637,93799,41660,,2627,4001,inactive
Hnf4,SID104180824,7.43e5,3.59e5,,34384,13516,inactive
Hnf4,SID104183136,4.57e5,56944,,3437,3437,inactive
Rab11,SID104196601,4.34e5,92723,,26618,509,inactive
bip1,SID104191119,82301,76160,,4017,3264,inactive
miple2,SID104188515,1.19e5,37284,,3714,2823,inactive
Paip2,SID104194296,1.54e5,1.15e5,,6043,4459,inactive
gammaTub37C,SID104183327,80068,53632,,3980,2790,inactive
Inos,SID104187447,68464,32178,,1735,3593,inactive
CG32650,SID104199691,93778,61739,,2770,1792,inactive
Tl,SID104196677,1.25e5,90059,,2880,2514,inactive
Cht11,SID104198062,80195,2.24e5,,2785,7989,inactive
CG30222,SID104183917,67424,39100,,1206,3764,inactive
CG30222,SID104184054,1.19e5,56940,,3100,6025,inactive
CG2209,SID104199635,78804,2.94e5,,2048,9984,inactive
Kal1,SID104195775,88791,49704,,3814,2186,inactive
LUBEL,SID104181933,1.26e5,42000,,3376,4369,inactive
CG1631,SID104200327,41420,1.20e5,,1337,5408,inactive
Tsp3A,SID104198448,73053,1.87e5,,1913,6624,inactive
CG3589,SID104184184,1.64e5,1.11e5,,6113,2736,inactive
CG9029,SID104182921,1.19e5,76050,,3424,7717,inactive
CG15721,SID104199480,90773,2.66e5,,2448,11504,inactive
qtc,SID104182156,87489,63788,,3810,3034,inactive
qtc,SID104182157,97159,40876,,2613,4226,inactive
CG31897,SID104180812,4.85e5,1.67e5,,23853,7233,inactive
CG14883,SID104194799,80474,72667,,2848,1924,inactive
sima,SID104196847,68115,48075,,1992,1116,inactive
Hayan,SID104199781,1.62e5,1.04e5,,3718,2437,inactive
CG10140,SID104189496,64711,62709,58348,6908,4210,inactive
CG13154,SID104186071,66602,38280,,2146,3533,inactive
CG30154,SID104185681,1.26e5,2.68e5,,3552,11399,inactive
Hers,SID104199221,1.19e5,1.16e5,,2888,2857,inactive
Hers,SID104199468,1.20e5,3.02e5,,2787,12524,inactive
